{"sequences": {"note": "Sequences of proteins named here, by UniProt entry; tags and fusion partners are left off.", "UniProt P27695, whole entry, looked up": "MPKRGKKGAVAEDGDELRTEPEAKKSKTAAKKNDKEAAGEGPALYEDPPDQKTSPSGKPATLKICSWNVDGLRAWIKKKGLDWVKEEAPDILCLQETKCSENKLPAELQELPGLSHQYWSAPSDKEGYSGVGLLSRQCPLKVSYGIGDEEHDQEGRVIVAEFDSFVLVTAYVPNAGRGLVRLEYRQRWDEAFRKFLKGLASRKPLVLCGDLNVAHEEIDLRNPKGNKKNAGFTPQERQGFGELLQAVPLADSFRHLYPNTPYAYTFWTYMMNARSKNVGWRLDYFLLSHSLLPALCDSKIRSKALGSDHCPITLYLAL"}, "source": "PubChem BioAssay AID2517", "about": "(National Center for Advancing Translational Sciences (NCATS), 2010)", "note": "About 1,200 (0.34%) of roughly 350,000 compounds were called active. This list was built around the results that the source calls inconclusive (neither active nor inactive); the mix of calls is not that of the screen. Calls come from the whole dose curve; as a rule, active = well fitted inhibition curve with a large enough effect; inconclusive = small, poorly fitted or top-dose-only effect; inactive = no such curve, though single readings can be large or run the other way. Potencies beside an inconclusive call are fits to weak or partial responses and may not hold up. Potency is the fitted concentration of half-maximal effect."}
{"biological_target": "DNA repair nuclease/redox regulator APEX1 (Homo sapiens) (UniProt P27695)", "assay": "qHTS Assay for Inhibitors of the Human Apurinic/apyrimidinic Endonuclease 1 (APE1); note: nearly all actives have a fitted effect of over 55% in size;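 for activity change, negative = inhibition: plate controls were vehicle for no effect and reference inhibitor for full effect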", "conditions": "recombinant APE1, TAMRA/BHQ-2 abasic DNA cleavage fluorescence; activity change, negative = inhibition: at 65.8 µM (top of the series)", "method_in_brief": "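Endonuclease cleavage of a quenched abasic-site DNA duplex (50 nM) by APE1 (0.75 nM) was tracked by TAMRA dequenching. Compounds were preincubated with enzyme 15 min at room temperature; data normalized to buffer-only and DMSO wells plus NSC13755 control.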"}
{"smiles": "Cc1cc2c(c(=O)n1Cc1ccccc1)C1O[C@](c3ccsc3)(Cc3ccccc31)O2", "activity change, negative = inhibition": "inactive: -12.1% [at 12.4 µM]"}
{"smiles": "COc1ccccc1CNc1ncnc2ccc(-c3ccccc3C#N)cc12", "activity change, negative = inhibition": "inactive: -3.47%"}
{"smiles": "COC(=O)[C@@]1(Cc2ccc(F)cc2)[C@H]2c3cc(C(=O)N4CCCC4)n(Cc4ccc(C)o4)c3C[C@H]2CN1C(=O)c1ccccc1", "Potency": "inconclusive: 25.1 µM [inhibitor, single point]"}
{"smiles": "COC(=O)c1cc(C(=O)c2cc(F)ccc2O)cn2c(=O)c3c(C)c(C)sc3nc12", "Potency": "inconclusive: 35.5 µM [inhibitor, single point]"}
{"smiles": "Brc1ccc(-c2nn3c(-c4ccco4)nnc3s2)o1", "Potency": "inconclusive: 39.8 µM [inhibitor, single point]"}
{"smiles": "COc1cc(NC(=O)c2ccc3c(SCC(=O)O)c4c(nc3c2)CCCC4)cc(OC)c1OC", "Potency": "inconclusive: 35.5 µM [inhibitor, partial curve, poor fit]"}
{"smiles": "COc1ccc([N+](=O)[O-])cc1NC(=O)Nc1ccc(OC)c(OC)c1", "activity change, negative = inhibition": "inactive: 3.1%"}
{"smiles": "C#CCOCCOCCOCCNc1nc(N2CCN(C(=O)[C@H](CCC(=O)O)n3cc(C(N)CO)nn3)CC2)nc(N2CCN(C(=O)[C@H](CCCCN)n3cc(C(N)CC(C)C)nn3)CC2)n1", "note": "(stereo partly specified)", "Potency": "inconclusive: 28.2 µM [inhibitor, single point]"}
{"smiles": "O=C(c1ccc(N2C(=O)C3C4CC(C(Br)C4Br)C3C2=O)cc1)N1CCCCC1", "note": "(stereo unspecified)", "Potency": "inconclusive: 23.8 µM [inhibitor, single point]"}
{"smiles": "COC(=O)C1=C(C)OC(N)=C(C#N)C1c1cc(C)sc1C", "note": "(stereo unspecified)", "Potency": "inconclusive: 0.447 µM [inhibitor, full curve, poor fit]"}
{"smiles": "O=C(COc1ccccc1)N1CCN(S(=O)(=O)c2cccs2)CC1", "activity change, negative = inhibition": "inactive: -0.982%"}
{"smiles": "Cc1ccc(NC(=O)c2ccccc2NS(=O)(=O)c2ccc(F)cc2)cc1S(=O)(=O)N1CCCCC1", "Potency": "inconclusive: 28.2 µM [inhibitor, single point]"}
{"smiles": "CC(=O)Oc1ccc(C(=O)Nc2ccc(C3(C#N)CCCC3)cc2)cc1", "activity change, negative = inhibition": "inactive: 9.43%"}
{"smiles": "COc1nc(N/N=C/c2ccccc2F)nc(N2CCCCC2)n1", "Potency": "inconclusive: 17.8 µM [inhibitor, single point]"}
{"smiles": "O=Cc1ccc(O)cc1O", "activity change, negative = inhibition": "inactive: 21.9%"}
{"smiles": "O=C(C1CCCCN1S(=O)(=O)c1ccccc1)N1CCCCC1", "note": "(stereo unspecified)", "Potency": "inconclusive: 8.91 µM [inhibitor, single point]"}
{"smiles": "O=[N+]([O-])c1ccc(/C=C/C2=NN(c3ccccc3)C(c3ccco3)C2)o1", "note": "(stereo unspecified)", "Potency": "inconclusive: 39.8 µM [inhibitor, partial curve]"}
{"smiles": "Cc1cc[n+](-c2[nH]c(=O)sc2/C=N/N=C(\\[O-])c2ccccc2)cc1C", "Potency": "active: 17.8 µM"}
{"smiles": "O=C(O)c1cc(O)c2c(c1)C(=O)c1cc(O)cc(O)c1C2=O", "Potency": "active: 25.1 µM"}
{"smiles": "Cc1cccc(C(=O)OCC(=O)NCc2ccco2)c1", "Potency": "inconclusive: 13.4 µM [inhibitor, partial curve]"}
{"smiles": "O=C(O)COc1ccccc1C(Nc1cccnc1)c1cc(Cl)c2cccnc2c1O", "note": "(stereo unspecified)", "activity change, negative = inhibition": "inactive: -8.43%"}
{"smiles": "O=C(CNC(=O)c1ccccc1Cl)OC1CCOC1=O", "note": "(stereo unspecified)", "Potency": "inconclusive: 5.01 µM [inhibitor, single point]"}
{"smiles": "O=C(Nc1nc2ccccc2c(=O)[nH]1)c1ccccc1SCc1ccccc1", "Potency": "inconclusive: 0.562 µM [inhibitor, full curve, poor fit]"}
{"smiles": "Cc1ccccc1Nc1nc(N)nc(COC(=O)/C=C/c2ccco2)n1", "Potency": "inconclusive: 39.8 µM [inhibitor, single point]"}
{"smiles": "O=S(=O)(Nc1cccc2cccnc12)c1ccc(Br)cc1", "activity change, negative = inhibition": "inactive: -2.44%"}
{"smiles": "CC(=O)Nc1cccc(OCC(=O)Nc2sccc2C(N)=O)c1", "activity change, negative = inhibition": "inactive: -2.87%"}
{"smiles": "Cn1c(=O)[nH]c(=O)c2c1nc(Br)n2CCSc1nc2ccccc2o1", "Potency": "inconclusive: 0.0035 µM [inhibitor, full curve]"}
{"smiles": "Cc1ccc(NC(=O)C2C3CCCC2C3c2ccccc2)cc1C", "note": "(stereo unspecified)", "Potency": "inconclusive: 3.98 µM [inhibitor, single point]"}
{"smiles": "O=C(O)c1cc(NS(=O)(=O)c2ccc(NC3CCCCC3)c([N+](=O)[O-])c2)cc(C(=O)O)c1", "Potency": "inconclusive: 31.6 µM [inhibitor, single point]"}
{"smiles": "Cc1c(C(=O)O)nn(-c2ccccc2)c(=O)c1C#N", "Potency": "inconclusive: 0.0631 µM [inhibitor, full curve, poor fit]"}
{"smiles": "COc1ccc(OCC(=O)Nc2c3c(nn2C(C)(C)C)CSC3)cc1", "Potency": "inconclusive: 0.794 µM [inhibitor, full curve]"}
{"smiles": "CCC(C)(C)C(=O)OC1CC(C)C=C2C=CC(C)C(CCC3CC(O)CC(=O)O3)C21", "note": "(stereo unspecified)", "Potency": "inconclusive: 5.01 µM [inhibitor, full curve, poor fit]"}
{"smiles": "COc1ccc(NC(=O)C2CCN(c3cc(C)nc(-c4ccccc4)n3)CC2)cc1", "Potency": "inconclusive: 44.7 µM [inhibitor, single point]"}
{"smiles": "Nc1cc2sc(-c3ccc(C(=O)O)cc3)nc2cc1Cl", "activity change, negative = inhibition": "inactive: -8.51%"}
{"smiles": "COC(=O)c1ccc(COc2ccc(/C=N/Nc3cccc(C(=O)O)c3)cc2)cc1", "Potency": "inconclusive: 35.5 µM [inhibitor, single point]"}
{"smiles": "CO[C@@H]1COC(=O)CCC[C@@H](C)[C@H](OC)COC(=O)[C@H](Cc2ccccc2)NC(=O)C/C=C\\[C@H]1C", "Potency": "inconclusive: 7.94 µM [inhibitor, single point]"}
{"smiles": "Cc1ccc(OCC(=O)N/N=C/c2cn[nH]c2-c2ccc(Cl)c(Cl)c2)cc1", "Potency": "inconclusive: 25.1 µM [inhibitor, single point]"}
{"smiles": "COCCNC(=O)C(C)N1c2cccc3cccc(c23)S1(=O)=O", "note": "(stereo unspecified)", "Potency": "inconclusive: 0.199 µM [inhibitor, full curve, poor fit]"}
{"smiles": "O=C(CCC(=O)N1CCN(c2ccc(O)cc2)CC1)c1cccs1", "Potency": "inconclusive: 25.1 µM [inhibitor, partial curve, poor fit]"}
{"smiles": "O=C(CN1C(=O)/C(=C2/SC(=S)N(CCS(=O)(=O)O)C2=O)c2ccccc21)Nc1cccc(C(F)(F)F)c1", "Potency": "inconclusive: 33.6 µM [inhibitor, single point]"}
{"smiles": "CCCNc1nc(C#N)nc(Nc2ccccc2)n1", "activity change, negative = inhibition": "inactive: -1.35%"}
{"smiles": "CC1(C)CCSC(/C=C/c2ccccc2)=N1", "Potency": "inconclusive: 8.91 µM [inhibitor, single point]"}
{"smiles": "Cc1ccc(C)c(/C=C(\\C(=O)O)c2ccc(S(=O)(=O)N3CCCCC3)s2)c1", "Potency": "inconclusive: 28.2 µM [inhibitor, single point]"}
{"smiles": "CC(C)n1cc(/C=N/Nc2ccc(Cl)c(C(=O)O)c2)c2ccccc21", "Potency": "inconclusive: 21.2 µM [inhibitor, single point]"}
{"smiles": "COC(=O)c1cc(Cl)c(NC(=O)/C=C/c2ccc(OC)c(OC)c2)cc1OC", "Potency": "inconclusive: 2.24 µM [inhibitor, partial curve]"}
{"smiles": "COc1cccc(N2CCN(CC(=O)NC(=O)NCc3ccco3)CC2)c1", "Potency": "inconclusive: 15.8 µM [inhibitor, partial curve]"}
{"smiles": "NS(=O)(=O)c1ccc(Sc2ccccn2)c([N+](=O)[O-])c1", "Potency": "inconclusive: 5.62 µM [inhibitor, single point]"}
{"smiles": "COC(=O)c1cccc(NC(=O)CSc2nc(O)c(-c3ccccc3)c(=O)[nH]2)c1", "activity change, negative = inhibition": "inactive: -8.79%"}
{"smiles": "O=C(Oc1cc(=O)oc2ccccc12)c1ccco1", "Potency": "inconclusive: 44.7 µM [inhibitor, single point]"}
{"smiles": "Cc1ccc(C2C3=C(CC(C)(C)CC3=O)Nc3onc(C)c32)cc1", "note": "(stereo unspecified)", "activity change, negative = inhibition": "inactive: 0.799%"}
{"smiles": "O=C1CCC/C1=C/Nc1ccc(Cl)cc1", "activity change, negative = inhibition": "inactive: 12%"}
{"smiles": "C=CCNC(=O)CCCOc1cc(C)ccc1C", "Potency": "inconclusive: 8.91 µM [inhibitor, single point]"}
{"smiles": "C=CCNC(=O)/C(C#N)=C/c1c(C)nn(-c2ccc(Cl)cc2)c1Cl", "Potency": "inconclusive: 7.08 µM [inhibitor, single point]"}
{"smiles": "Nc1c(Cl)ncnc1N/N=C/c1ccncc1", "Potency": "inconclusive: 3.55 µM [inhibitor, single point]"}
{"smiles": "Oc1ccc([C@@H]2CNCCc3c2cc(O)c(O)c3Cl)cc1", "Potency": "inconclusive: 6.31 µM [inhibitor, full curve, poor fit]"}
{"smiles": "Cc1nc2ccc(Br)cn2c1C(=O)N/N=C\\c1ccccc1[N+](=O)[O-]", "Potency": "inconclusive: 39.8 µM [inhibitor, single point]"}
{"smiles": "Cc1cc(C)c2[nH]c(=O)c(CN(Cc3ccco3)C(=O)c3cccs3)cc2c1", "activity change, negative = inhibition": "inactive: -7.84%"}
{"smiles": "CCn1c2ccccc2c2nc3cc(S(=O)(=O)N4CCOCC4)ccc3nc21", "activity change, negative = inhibition": "inactive: -0.268%"}
{"smiles": "CCOc1ccc(C(=O)Nc2cccc(-c3cc4ccccc4oc3=O)c2)cc1[N+](=O)[O-]", "activity change, negative = inhibition": "inactive: -10.7%"}
{"smiles": "COc1ccc(CNC(=O)COC(=O)/C=C/c2ccc(S(=O)(=O)N3CCOCC3)cc2)cc1", "Potency": "inconclusive: 25.1 µM [inhibitor, partial curve, poor fit]"}
{"smiles": "Nc1nc(NCc2ccco2)nc(NCCO)c1[N+](=O)[O-]", "Potency": "inconclusive: 7.94 µM [inhibitor, single point]"}
{"smiles": "CC1CCCN(C(=O)C(Cc2ccccc2)n2cccc2)C1", "note": "(stereo unspecified)", "Potency": "inconclusive: 50.1 µM [inhibitor, partial curve]"}
{"smiles": "COc1cc(OC)c(N(C)S(=O)(=O)c2cccc(C(=O)OCC(=O)NCc3ccco3)c2)cc1Cl", "Potency": "inconclusive: 35.5 µM [inhibitor, single point]"}
{"smiles": "CC(=O)Nc1ccc(Nc2c3c4c(cccc4n(C)c2=O)C(=O)c2ccccc2-3)cc1", "Potency": "inconclusive: 1.41 µM [inhibitor, full curve]"}
{"smiles": "CC(=O)Nc1sc(N/N=C/c2ccc(N(C)C)cc2)nc1-c1ccc(C)cc1", "activity change, negative = inhibition": "inactive: -4.73%"}
{"smiles": "Cc1cccc(C)c1NC(=O)CSCC(=O)c1ccc(O)c(O)c1", "Potency": "inconclusive: 39.8 µM [inhibitor, single point]"}
